Results are given in words; binding and its absence hold for the method and conditions named. Some entries that bind do so weakly or less than the wild type.
Target: fibroblast activation protein (FAP), pGBKT7-FAP bait (UniProt Q12884)
Experiment: two-hybrid; bait pGBKT7-FAP, prey pGADT7-SCRIB; SD/-His/-Ade/-Trp/-Leu/X/A plates; alpha-galactosidase activity

Chains of the proteins cited; added tags and fusions are not shown. Lines headed by an entry give the natural chain unless they say otherwise; changes in a name come on top. A line that says so, or that is headed by a name, gives the form on record, which may keep a tag or linker. Residues count along the entry.
UniProt Q12884, residues 30-760: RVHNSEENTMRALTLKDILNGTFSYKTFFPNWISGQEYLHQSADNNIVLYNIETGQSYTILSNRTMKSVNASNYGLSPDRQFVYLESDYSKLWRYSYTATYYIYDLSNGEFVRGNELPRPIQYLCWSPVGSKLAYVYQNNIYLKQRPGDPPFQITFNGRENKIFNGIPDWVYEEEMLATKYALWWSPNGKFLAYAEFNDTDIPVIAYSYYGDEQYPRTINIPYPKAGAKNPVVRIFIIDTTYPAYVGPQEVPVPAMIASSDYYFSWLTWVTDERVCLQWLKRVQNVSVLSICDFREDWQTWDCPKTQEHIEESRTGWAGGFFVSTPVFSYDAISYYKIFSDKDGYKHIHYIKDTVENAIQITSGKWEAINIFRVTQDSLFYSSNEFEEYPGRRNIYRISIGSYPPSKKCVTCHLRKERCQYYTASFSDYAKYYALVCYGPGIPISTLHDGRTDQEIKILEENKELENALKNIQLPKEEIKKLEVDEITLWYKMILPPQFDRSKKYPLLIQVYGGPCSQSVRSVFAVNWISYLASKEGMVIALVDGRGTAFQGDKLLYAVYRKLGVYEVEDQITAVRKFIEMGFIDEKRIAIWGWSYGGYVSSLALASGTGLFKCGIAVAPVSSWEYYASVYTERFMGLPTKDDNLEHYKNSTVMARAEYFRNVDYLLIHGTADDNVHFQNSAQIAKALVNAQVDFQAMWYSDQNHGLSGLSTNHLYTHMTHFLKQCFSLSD
scribble planar cell polarity protein (SCRIB), pGADT7-SCRIB prey (Q14160-1, form named): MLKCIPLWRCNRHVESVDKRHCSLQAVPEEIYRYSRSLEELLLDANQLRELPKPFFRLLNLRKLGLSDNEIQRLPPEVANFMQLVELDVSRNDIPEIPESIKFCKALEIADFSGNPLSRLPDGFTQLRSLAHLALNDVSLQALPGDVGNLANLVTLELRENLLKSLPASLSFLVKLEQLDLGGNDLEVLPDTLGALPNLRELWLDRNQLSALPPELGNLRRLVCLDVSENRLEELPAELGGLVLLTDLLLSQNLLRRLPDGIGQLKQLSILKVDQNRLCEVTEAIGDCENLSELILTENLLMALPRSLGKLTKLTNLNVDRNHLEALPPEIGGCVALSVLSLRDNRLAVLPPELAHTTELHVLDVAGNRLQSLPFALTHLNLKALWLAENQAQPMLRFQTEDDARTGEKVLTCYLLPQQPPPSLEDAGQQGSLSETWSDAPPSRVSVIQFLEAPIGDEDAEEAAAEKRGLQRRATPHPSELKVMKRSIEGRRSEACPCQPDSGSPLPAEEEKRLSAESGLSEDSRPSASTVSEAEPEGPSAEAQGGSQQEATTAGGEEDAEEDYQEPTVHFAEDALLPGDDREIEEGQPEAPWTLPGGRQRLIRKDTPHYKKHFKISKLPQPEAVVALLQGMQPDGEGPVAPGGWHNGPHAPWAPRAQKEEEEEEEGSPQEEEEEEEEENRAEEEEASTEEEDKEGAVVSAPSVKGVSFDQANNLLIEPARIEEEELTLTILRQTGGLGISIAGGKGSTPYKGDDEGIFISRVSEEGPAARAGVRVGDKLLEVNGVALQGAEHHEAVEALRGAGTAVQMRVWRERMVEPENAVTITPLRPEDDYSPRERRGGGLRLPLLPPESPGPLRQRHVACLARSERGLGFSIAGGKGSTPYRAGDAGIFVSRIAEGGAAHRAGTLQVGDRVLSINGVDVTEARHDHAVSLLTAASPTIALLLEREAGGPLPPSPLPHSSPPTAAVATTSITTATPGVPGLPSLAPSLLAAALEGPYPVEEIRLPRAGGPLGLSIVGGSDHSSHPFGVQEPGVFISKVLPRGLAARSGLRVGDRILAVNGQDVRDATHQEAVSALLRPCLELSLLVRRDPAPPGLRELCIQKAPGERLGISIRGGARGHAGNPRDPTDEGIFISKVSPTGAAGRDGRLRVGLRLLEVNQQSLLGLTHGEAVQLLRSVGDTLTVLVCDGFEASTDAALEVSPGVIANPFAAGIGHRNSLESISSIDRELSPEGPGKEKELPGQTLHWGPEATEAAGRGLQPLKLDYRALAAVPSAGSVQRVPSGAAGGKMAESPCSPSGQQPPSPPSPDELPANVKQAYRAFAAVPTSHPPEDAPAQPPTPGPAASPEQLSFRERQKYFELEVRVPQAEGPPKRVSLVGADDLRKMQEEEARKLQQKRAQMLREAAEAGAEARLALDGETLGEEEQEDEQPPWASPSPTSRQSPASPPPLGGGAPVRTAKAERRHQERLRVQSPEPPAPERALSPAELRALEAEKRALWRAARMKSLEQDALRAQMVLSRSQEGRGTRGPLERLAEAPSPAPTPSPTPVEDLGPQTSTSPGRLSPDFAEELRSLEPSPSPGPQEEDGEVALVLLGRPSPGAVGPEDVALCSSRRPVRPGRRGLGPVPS

binding: binds
Substance: scribble planar cell polarity protein (SCRIB), pGADT7-SCRIB prey (from UniProt Q14160-1 1-1630)

Reference: publication PMC10448038
